Four molecules from patent publication US20160024199A1 can be followed below.

Changes are numbered by the printed parent chain. No constants are given. Whether binding was seen depends on the method and setting. For some of these results: Binding can be weak; no strength is given.

The target in assay [1] is recombinant human insulin-like growth factor I (IGF-I) (human). Kind of assay: flow cytometry blocking assay: scFv pre-incubated with biotinylated IGF-I, mixture added to MCF-7 cells (IGF-IR and IR), streptavidin-PE; scFv concentration not given. Background: Flow cytometry measures light scatter and fluorescence of single cells or particles in a stream.
For assay [2] the target is unchanged. Kind of assay: ELISA, IgG on coated antigen. (An ELISA detects its analyte on a solid surface through an enzyme-linked reagent.)
Assay [3] shares this target. Kind of assay: ELISA after 9 days in human sera at 37 C.
The target is the same in assay [4]. Kind of assay: ELISA, 10 nM IgG on coated IGF-I, detected with HRP anti-human Fc antibody.
Assay [5] has the same target. Kind of assay: ELISA, serial dilutions of IgG on coated IGF-I, detected with HRP anti-human Fc antibody.
Assay [6] has as its target Folate receptor β. Kind of assay: ELISA, 10 nM IgG on the coated irrelevant antigen, detected with HRP anti-human Fc antibody.
The target in assay [7] is Mesothelin. The assay is described as above.
The target in assay [8] is recombinant human insulin-like growth factor I (IGF-I) (human). Kind of assay: ELISA on coated IGF-I after incubation of the antibody with an equal volume of human serum at 37 C for 0 to 9 days.
The target is the same in assay [9]. Kind of assay: flow cytometry blocking assay: IgG pre-incubated with biotinylated IGF-I, mixture added to MCF-7 cells (IGF-IR and IR), streptavidin-PE; IgG concentration not given.
The target is the same in assay [10]. Kind of assay: flow cytometry blocking assay: 5 nM biotinylated IGF-I on MCF-7 cells (IGF-IR and IR) in the presence of the antibody, streptavidin-PE; antibody concentration not given.
Assay [11] shares this target. Kind of assay: phage ELISA.

B1: m708.5 scFv (scFv, V domains shown)
VH: QVQLQQLGAEVKMPGSSVKVSCKASGGTFSSYAISWVRQAPGQGLEWMGGIIPTLGIVKYAQKFQGRVTITADKSTSTAYMELSSLGSEDTAVYYCAGGPRGYSYNFDNWGQGTLVTVSS
VL: DIQMTQSPSSLSASVGDRVTIVCRASQTISRYVNWYQQKPGKAPKLLIYAASSLQSGVSSRFSGSGSGTEFALTISSLQPEDFATYFCQQTYSPPITFGQGTRLEIKQ
As to B1, in assay [1], the binding result is listed as “binds”.

B2: IgG1 m708.5 (antibody, V domains shown)
VH: B1 VH
VL: B1 VL
Turning to B2, the binding entry in assay [2] is given as “binds”; in [3], “binds”; in assay [4], “binds”; in [5] it was “binds”; in assay [6] it was “no binding (tested: 10 nM)”; in [7] it was “no binding (tested: 10 nM)”. Further, the binding result in assay [8], in assay [9] and in [10] was “binds” throughout.

B3: m708.2 (phage-displayed Fab clone from the light chain shuffled library) (Fab, V domains shown)
VH: B1 VH with L7P, M13K, T54I, V58A, K59N, K74E, G87R, G98R, N109Y
VL: B1 VL with V22A, V33L, A72T, Q108R
Take B3: in [11], the binding result is reported as “binds”.

B4: IgG1 m708.2 (antibody, V domains shown)
VH: B1 VH with L7P, M13K, T54I, V58A, K59N, K74E, G87R, G98R, N109Y
VL: B1 VL with V22A, V33L, A72T, Q108R
With B4, the binding entry in assay [2] and in [5] was “binds” in each case.
